{"source": "paper PMC10627786", "key": {"[1]": {"target": "T1, ESYT1 fused with BirA*-FLAG (BioID bait) (human) (UniProt Q9BSJ8)", "T1 sequence": "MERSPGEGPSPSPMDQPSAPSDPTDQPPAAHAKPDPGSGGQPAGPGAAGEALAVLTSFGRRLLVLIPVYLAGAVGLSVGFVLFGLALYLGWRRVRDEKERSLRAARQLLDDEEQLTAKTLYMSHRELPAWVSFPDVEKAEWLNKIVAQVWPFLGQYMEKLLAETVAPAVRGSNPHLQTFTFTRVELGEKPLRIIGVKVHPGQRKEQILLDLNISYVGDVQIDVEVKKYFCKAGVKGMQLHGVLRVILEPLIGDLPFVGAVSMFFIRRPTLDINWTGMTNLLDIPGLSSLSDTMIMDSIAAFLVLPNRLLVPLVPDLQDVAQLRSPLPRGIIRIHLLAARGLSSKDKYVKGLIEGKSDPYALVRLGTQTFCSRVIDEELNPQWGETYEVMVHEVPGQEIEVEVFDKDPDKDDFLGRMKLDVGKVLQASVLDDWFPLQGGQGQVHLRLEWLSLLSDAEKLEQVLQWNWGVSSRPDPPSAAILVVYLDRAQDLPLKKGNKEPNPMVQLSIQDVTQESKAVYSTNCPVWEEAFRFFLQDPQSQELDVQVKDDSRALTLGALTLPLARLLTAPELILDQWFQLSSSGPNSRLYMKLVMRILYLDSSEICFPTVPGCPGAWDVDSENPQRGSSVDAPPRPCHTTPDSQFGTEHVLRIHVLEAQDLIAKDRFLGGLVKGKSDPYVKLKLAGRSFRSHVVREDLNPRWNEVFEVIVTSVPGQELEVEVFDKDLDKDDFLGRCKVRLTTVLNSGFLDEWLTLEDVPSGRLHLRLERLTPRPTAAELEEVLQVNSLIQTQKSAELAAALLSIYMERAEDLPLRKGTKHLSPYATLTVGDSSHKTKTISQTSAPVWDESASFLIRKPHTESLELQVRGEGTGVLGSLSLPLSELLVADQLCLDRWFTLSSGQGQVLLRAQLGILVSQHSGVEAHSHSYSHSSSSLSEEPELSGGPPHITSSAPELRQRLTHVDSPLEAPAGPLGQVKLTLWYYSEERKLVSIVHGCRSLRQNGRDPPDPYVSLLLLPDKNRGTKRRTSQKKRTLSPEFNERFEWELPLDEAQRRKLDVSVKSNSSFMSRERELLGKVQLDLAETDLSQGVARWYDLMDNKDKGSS", "experiment": "proximity labelling; BioID in stable inducible Flp-In T-REx 293 cells expressing BirA*-FLAG baits; mass spectrometry of biotinylated preys; SAINTexpress, two biological replicates per bait, 50 negative control runs, BFDR threshold 1%"}, "ESYT1-3xFLAG (human)": {"target": "T2, ESYT1-3xFLAG (human) (UniProt Q9BSJ8)", "T2 sequence": "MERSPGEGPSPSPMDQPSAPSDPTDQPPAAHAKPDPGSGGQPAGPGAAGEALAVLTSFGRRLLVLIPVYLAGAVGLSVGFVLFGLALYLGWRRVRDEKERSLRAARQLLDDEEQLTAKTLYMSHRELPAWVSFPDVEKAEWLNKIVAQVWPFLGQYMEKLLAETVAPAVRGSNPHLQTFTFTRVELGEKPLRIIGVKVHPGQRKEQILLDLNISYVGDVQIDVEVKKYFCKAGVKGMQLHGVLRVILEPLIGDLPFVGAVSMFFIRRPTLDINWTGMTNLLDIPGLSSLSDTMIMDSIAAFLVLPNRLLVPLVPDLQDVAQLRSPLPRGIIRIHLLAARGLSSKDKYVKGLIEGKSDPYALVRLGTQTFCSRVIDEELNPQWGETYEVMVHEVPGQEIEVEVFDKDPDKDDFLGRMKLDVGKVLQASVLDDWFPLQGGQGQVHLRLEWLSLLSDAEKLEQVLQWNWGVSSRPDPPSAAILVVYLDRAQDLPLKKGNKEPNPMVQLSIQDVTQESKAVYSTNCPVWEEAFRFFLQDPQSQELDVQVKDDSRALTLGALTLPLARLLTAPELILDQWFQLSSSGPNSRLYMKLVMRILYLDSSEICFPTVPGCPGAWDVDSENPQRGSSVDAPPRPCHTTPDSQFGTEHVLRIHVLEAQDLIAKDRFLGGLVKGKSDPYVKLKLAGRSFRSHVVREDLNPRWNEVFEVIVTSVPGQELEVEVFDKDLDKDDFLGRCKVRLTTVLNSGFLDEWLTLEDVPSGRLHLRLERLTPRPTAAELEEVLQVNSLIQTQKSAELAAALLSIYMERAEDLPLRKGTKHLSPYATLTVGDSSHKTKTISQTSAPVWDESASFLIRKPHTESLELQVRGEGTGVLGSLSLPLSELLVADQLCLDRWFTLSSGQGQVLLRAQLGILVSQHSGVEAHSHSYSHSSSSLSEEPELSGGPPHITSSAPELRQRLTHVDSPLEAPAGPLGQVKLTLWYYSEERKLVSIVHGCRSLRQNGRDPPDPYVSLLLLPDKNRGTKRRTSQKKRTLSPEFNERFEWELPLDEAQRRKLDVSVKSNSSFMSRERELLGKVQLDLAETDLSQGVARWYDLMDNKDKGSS", "experiment": "affinity purification with mass spectrometry; heavy membrane fraction of human fibroblasts overexpressing ESYT1-Flag lysed in 10 mM Tris pH 7.5, 150 mM NaCl, 1% DDM; Flag antibody cross-linked to Dynabeads Protein A, overnight at 4°C; washes up to 450 mM NaCl; naked beads as negative control; Orbitrap LC-MS"}, "[2]": {"target": "T3, PDZD8 fused with BirA*-FLAG (BioID bait) (human) (UniProt Q8NEN9)", "T3 sequence": "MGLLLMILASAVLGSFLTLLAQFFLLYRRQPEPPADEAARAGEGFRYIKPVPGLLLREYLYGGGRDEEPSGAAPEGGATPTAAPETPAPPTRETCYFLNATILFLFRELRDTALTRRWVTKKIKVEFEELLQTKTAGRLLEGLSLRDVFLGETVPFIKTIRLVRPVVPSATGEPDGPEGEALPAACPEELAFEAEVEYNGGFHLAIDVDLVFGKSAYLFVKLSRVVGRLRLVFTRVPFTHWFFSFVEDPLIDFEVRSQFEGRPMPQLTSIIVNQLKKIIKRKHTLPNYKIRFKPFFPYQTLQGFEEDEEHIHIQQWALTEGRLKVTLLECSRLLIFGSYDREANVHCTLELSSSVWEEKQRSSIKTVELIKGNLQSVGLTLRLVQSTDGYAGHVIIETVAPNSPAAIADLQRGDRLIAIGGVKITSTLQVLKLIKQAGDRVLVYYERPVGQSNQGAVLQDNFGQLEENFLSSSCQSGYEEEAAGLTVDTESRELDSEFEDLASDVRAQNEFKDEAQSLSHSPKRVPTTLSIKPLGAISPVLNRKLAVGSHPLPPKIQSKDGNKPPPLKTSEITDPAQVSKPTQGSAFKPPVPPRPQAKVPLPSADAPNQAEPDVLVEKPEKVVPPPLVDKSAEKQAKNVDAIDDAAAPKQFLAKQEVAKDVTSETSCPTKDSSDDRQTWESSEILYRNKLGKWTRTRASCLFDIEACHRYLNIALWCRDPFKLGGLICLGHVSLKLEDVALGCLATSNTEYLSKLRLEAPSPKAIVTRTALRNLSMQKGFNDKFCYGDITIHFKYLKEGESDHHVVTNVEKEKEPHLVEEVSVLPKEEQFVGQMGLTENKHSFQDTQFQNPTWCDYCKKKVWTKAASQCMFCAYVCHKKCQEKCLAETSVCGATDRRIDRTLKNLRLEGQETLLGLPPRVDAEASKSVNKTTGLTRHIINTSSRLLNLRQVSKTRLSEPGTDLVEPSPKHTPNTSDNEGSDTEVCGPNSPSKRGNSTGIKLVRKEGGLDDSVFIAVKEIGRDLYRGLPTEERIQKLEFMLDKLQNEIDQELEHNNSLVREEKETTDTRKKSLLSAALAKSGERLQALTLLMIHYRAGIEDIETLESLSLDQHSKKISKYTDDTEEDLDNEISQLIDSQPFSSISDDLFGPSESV", "experiment": "proximity labelling; BioID in stable inducible Flp-In T-REx 293 cells expressing BirA*-FLAG baits; mass spectrometry of biotinylated preys; SAINTexpress, two biological replicates per bait, 50 negative control runs, BFDR threshold 1%"}}, "note": "Results are given in words; binding and its absence hold for the method and conditions named. In cells and extracts the contact can be indirect. A yes stands for co-enrichment or nearness to the bait. Other partners may have been found. Sequences can lack the tags named with a protein.", "data": [{"binder": "OSBPL8 (protein, UniProt Q9BZF1 1-889) MEGGLADGEPDRTSLLGDSKDVLGPSTVVANSDESQLLTPGKMSQRQGKEAYPTPTKDLHQPSLSPASPHSQGFERGKEDISQNKDESSLSMSKSKSESKLYNGSEKDSSTSSKLTKKESLKVQKKNYREEKKRATKELLSTITDPSVIVMADWLKIRGTLKSWTKLWCVLKPGVLLIYKTQKNGQWVGTVLLNACEIIERPSKKDGFCFKLFHPLEQSIWAVKGPKGEAVGSITQPLPSSYLIIRATSESDGRCWMDALELALKCSSLLKRTMIREGKEHDLSVSSDSTHVTFYGLLRANNLHSGDNFQLNDSEIERQHFKDQDMYSDKSDKENDQEHDESDNEVMGKSEESDTDTSERQDDSYIEPEPVEPLKETTYTEQSHEELGEAGEASQTETVSEENKSLIWTLLKQVRPGMDLSKVVLPTFILEPRSFLDKLSDYYYHADFLSEAALEENPYFRLKKVVKWYLSGFYKKPKGLKKPYNPILGETFRCLWIHPRTNSKTFYIAEQVSHHPPISAFYVSNRKDGFCLSGSILAKSKFYGNSLSAILEGEARLTFLNRGEDYVMTMPYAHCKGILYGTMTLELGGTVNITCQKTGYSAILEFKLKPFLGSSDCVNQISGKLKLGKEVLATLEGHWDSEVFITDKKTDNSEVFWNPTPDIKQWRLIRHTVKFEEQGDFESEKLWQRVTRAINAKDQTEATQEKYVLEEAQRQAARDRKTKNEEWSCKLFELDPLTGEWHYKFADTRPWDPLNDMIQFEKDGVIQTKVKHRTPMVSVPKMKHKPTRQQKKVAKGYSSPEPDIQDSSGSEAQSVKPSTRRKKGIELGDIQSSIESIKQTQEEIKRNIMALRNHLVSSTPATDYFLQQKDYFIIFLLILLQVIINFMFK", "values": [{"measurement": "binding", "setting": "[1]", "value": "binds"}]}, {"binder": "SYNJ2BP (endogenous in human fibroblasts) (protein, UniProt P57105 1-145) MNGRVDYLVTEEEINLTRGPSGLGFNIVGGTDQQYVSNDSGIYVSRIKENGAAALDGRLQEGDKILSVNGQDLKNLLHQDAVDLFRNAGYAVSLRVQHRLQVQNGPIGHRGEGDPSGIPIFMVLVPVFALTMVAAWAFMRYRQQL", "values": [{"measurement": "binding", "setting": "ESYT1-3xFLAG (human)", "value": "binds"}]}, {"binder": "ESYT2 (endogenous in human fibroblasts) (protein, UniProt A0FGR8 1-921) MTANRDAALSSHRHPGCAQRPRTPTFASSSQRRSAFGFDDGNFPGLGERSHAPGSRLGARRRAKTARGLRGHRQRGAGAGLSRPGSARAPSPPRPGGPENPGGVLSVELPGLLAQLARSFALLLPVYALGYLGLSFSWVLLALALLAWCRRSRGLKALRLCRALALLEDEERVVRLGVRACDLPAWVHFPDTERAEWLNKTVKHMWPFICQFIEKLFRETIEPAVRGANTHLSTFSFTKVDVGQQPLRINGVKVYTENVDKRQIILDLQISFVGNCEIDLEIKRYFCRAGVKSIQIHGTMRVILEPLIGDMPLVGALSIFFLRKPLLEINWTGLTNLLDVPGLNGLSDTIILDIISNYLVLPNRITVPLVSEVQIAQLRFPVPKGVLRIHFIEAQDLQGKDTYLKGLVKGKSDPYGIIRVGNQIFQSRVIKENLSPKWNEVYEALVYEHPGQELEIELFDEDPDKDDFLGSLMIDLIEVEKERLLDEWFTLDEVPKGKLHLRLEWLTLMPNASNLDKVLTDIKADKDQANDGLSSALLILYLDSARNLPSGKKISSNPNPVVQMSVGHKAQESKIRYKTNEPVWEENFTFFIHNPKRQDLEVEVRDEQHQCSLGNLKVPLSQLLTSEDMTVSQRFQLSNSGPNSTIKMKIALRVLHLEKRERPPDHQHSAQVKRPSVSKEGRKTSIKSHMSGSPGPGGSNTAPSTPVIGGSDKPGMEEKAQPPEAGPQGLHDLGRSSSSLLASPGHISVKEPTPSIASDISLPIATQELRQRLRQLENGTTLGQSPLGQIQLTIRHSSQRNKLIVVVHACRNLIAFSEDGSDPYVRMYLLPDKRRSGRRKTHVSKKTLNPVFDQSFDFSVSLPEVQRRTLDVAVKNSGGFLSKDKGLLGKVLVALASEELAKGWTQWYDLTEDGTRPQAMT", "values": [{"measurement": "binding", "setting": "ESYT1-3xFLAG (human)", "value": "binds"}]}, {"binder": "ZFYVE27 (Protrudin) (protein, UniProt Q5T4F4 1-411) MQTSEREGSGPELSPSVMPEAPLESPPFPTKSPAFDLFNLVLSYKRLEIYLEPLKDAGDGVRYLLRWQMPLCSLLTCLGLNVLFLTLNEGAWYSVGALMISVPALLGYLQEVCRARLPDSELMRRKYHSVRQEDLQRGRLSRPEAVAEVKSFLIQLEAFLSRLCCTCEAAYRVLHWENPVVSSQFYGALLGTVCMLYLLPLCWVLTLLNSTLFLGNVEFFRVVSEYRASLQQRMNPKQEEHAFESPPPPDVGGKDGLMDSTPALTPTEDLTPGSVEEAEEAEPDEEFKDAIEETHLVVLEDDEGAPCPAEDELALQDNGFLSKNEVLRSKVSRLTERLRKRYPTNNFGNCTGCSATFSVLKKRRSCSNCGNSFCSRCCSFKVPKSSMGATAPEAQRETVFVCASCNQTLSK", "values": [{"measurement": "binding", "setting": "[2]", "value": "binds"}]}]}
